Holding throughout (assay): glycan array binding signal (z-score within array); higher = stronger binding
What all share (conditions): glycan notation: IUPAC condensed, linker removed

The target of assay [1] is Gal(b1-4)GlcNAc(b1-3)Gal(b1-4)GlcNAc(b1-3)Gal(b1-4)GlcNAc(b1-3)Gal(b1-4)GlcNAc(b1-2)Man(a1-3)[Gal(b1-4)GlcNAc(b1-3)Gal(b1-4)GlcNAc(b1-3)Gal(b1-4)GlcNAc(b1-3)Gal(b1-4)GlcNAc(b1-2)Man(a1-6)]Man(b1-4)GlcNAc(b1-4)[Fuc(a1-6)]GlcNAc. An outline of the steps:
(§1)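 Glycan array data were curated from 3228 arrays in the Consortium for Functional Glycomics database and kept only where the protein sequence was available. Glycan names were converted to IUPAC-condensed notation, and columns mapping to the same glycan were averaged. The binding signal is a within-array Z-score, averaged across arrays of the same protein sequence at different concentrations or buffers and across linkers. Negative Z-scores can be read as non-binding.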

Assay [2] addresses Gal(b1-4)GlcNAc(b1-3)Gal(b1-4)GlcNAc(b1-3)Gal(b1-4)GlcNAc(b1-3)Gal(b1-4)GlcNAc(b1-2)[Gal(b1-4)GlcNAc(b1-3)Gal(b1-4)GlcNAc(b1-3)Gal(b1-4)GlcNAc(b1-3)Gal(b1-4)GlcNAc(b1-6)]Man(a1-6)[Gal(b1-4)GlcNAc(b1-3)Gal(b1-4)GlcNAc(b1-3)Gal(b1-4)GlcNAc(b1-3)Gal(b1-4)GlcNAc(b1-2)Man(a1-3)]Man(b1-4)GlcNAc(b1-4)[Fuc(a1-6)]GlcNAc. The method, boiled down: as §1
Assay [3] deals with Gal(b1-4)GlcNAc(b1-3)Gal(b1-4)GlcNAc(b1-3)Gal(b1-4)GlcNAc(b1-3)Gal(b1-4)GlcNAc(b1-3)Gal(b1-4)GlcNAc(b1-2)Man(a1-3)[Gal(b1-4)GlcNAc(b1-3)Gal(b1-4)GlcNAc(b1-3)Gal(b1-4)GlcNAc(b1-3)Gal(b1-4)GlcNAc(b1-3)Gal(b1-4)GlcNAc(b1-2)Man(a1-6)]Man(b1-4)GlcNAc(b1-4)GlcNAc. An outline of the steps:
as §1

The target of assay [4] is Gal(b1-4)GlcNAc(b1-3)Gal(b1-4)GlcNAc(b1-3)Gal(b1-4)GlcNAc(b1-3)Gal(b1-4)GlcNAc(b1-3)Gal(b1-4)GlcNAc(b1-2)Man(a1-3)[Gal(b1-4)GlcNAc(b1-3)Gal(b1-4)GlcNAc(b1-3)Gal(b1-4)GlcNAc(b1-3)Gal(b1-4)GlcNAc(b1-3)Gal(b1-4)GlcNAc(b1-2)Man(a1-6)]Man(b1-4)GlcNAc(b1-4)[Fuc(a1-6)]GlcNAc. An outline of the steps:
as §1

The target in assay [5] is Gal(b1-4)GlcNAc(b1-3)Gal(b1-4)GlcNAc(b1-3)Gal(b1-4)GlcNAc(b1-3)Gal(b1-4)GlcNAc(b1-3)Gal(b1-4)GlcNAc(b1-2)[Gal(b1-4)GlcNAc(b1-3)Gal(b1-4)GlcNAc(b1-3)Gal(b1-4)GlcNAc(b1-3)Gal(b1-4)GlcNAc(b1-3)Gal(b1-4)GlcNAc(b1-6)]Man(a1-6)[Gal(b1-4)GlcNAc(b1-3)Gal(b1-4)GlcNAc(b1-3)Gal(b1-4)GlcNAc(b1-3)Gal(b1-4)GlcNAc(b1-3)Gal(b1-4)GlcNAc(b1-2)Man(a1-3)]Man(b1-4)GlcNAc(b1-4)[Fuc(a1-6)]GlcNAc. An outline of the steps: as §1

Assay [6] addresses Gal(b1-4)GlcNAc(b1-3)Gal(b1-4)GlcNAc(b1-3)Gal(b1-4)GlcNAc(b1-3)Gal(b1-4)GlcNAc(b1-3)Gal(b1-4)GlcNAc(b1-3)Gal(b1-4)GlcNAc(b1-2)Man(a1-3)[Gal(b1-4)GlcNAc(b1-3)Gal(b1-4)GlcNAc(b1-3)Gal(b1-4)GlcNAc(b1-3)Gal(b1-4)GlcNAc(b1-3)Gal(b1-4)GlcNAc(b1-3)Gal(b1-4)GlcNAc(b1-2)Man(a1-6)]Man(b1-4)GlcNAc(b1-4)GlcNAc. An outline of the steps: as §1
Assay [7] concerns the target Gal(b1-4)GlcNAc(b1-3)Gal(b1-4)GlcNAc(b1-3)GalNAc. The method, boiled down:
as §1

Assay [8] addresses Gal(b1-4)GlcNAc(b1-3)Gal(b1-4)GlcNAc(b1-3)[Gal(b1-4)GlcNAc(b1-3)Gal(b1-4)GlcNAc(b1-6)]GalNAc. An outline of the steps:
as §1

In assay [9] the target is Gal(b1-4)GlcNAc(b1-3)Gal(b1-4)GlcNAc(b1-6)[Gal(b1-3)]GalNAc. The method, boiled down:
as §1

In assay [10] the target is Gal(b1-4)GlcNAc(b1-3)Gal(b1-4)[Fuc(a1-3)]GlcNAc(b1-3)Gal(b1-4)[Fuc(a1-3)]GlcNAc. The method, boiled down:
as §1

The target of assay [11] is Gal(b1-4)GlcNAc(b1-3)GalNAc. An outline of the steps: as §1
In assay [12] the target is Gal(b1-4)GlcNAc(b1-3)[Fuc(a1-3)GlcNAc(b1-6)]Gal(b1-4)Glc. An outline of the steps:
as §1

For assay [13], the target named is Gal(b1-4)GlcNAc(b1-3)[Gal(b1-4)GlcNAc(b1-6)]Gal(b1-4)GlcNAc. The method, boiled down: as §1
In assay [14] the target is Gal(b1-4)GlcNAc(b1-3)[GlcNAc(b1-6)]Gal(b1-4)GlcNAc. The method, boiled down:
as §1

Assay [15] concerns the target Gal(b1-4)GlcNAc(b1-6)Gal(b1-4)GlcNAc. The method, boiled down:
as §1

Assay [16] has as its target Gal(b1-4)GlcNAc(b1-6)GalNAc. An outline of the steps:
as §1

The target in assay [17] is Gal(b1-4)GlcNAc(b1-6)[Gal(b1-3)]GalNAc. An outline of the steps: as §1
Assay [18] deals with Gal(b1-4)GlcNAc(b1-6)[Gal(b1-4)GlcNAc(b1-3)]GalNAc. An outline of the steps: as §1
Assay [19] concerns the target Gal(b1-4)GlcNAc6P. An outline of the steps: as §1
For assay [20], the target named is Gal(b1-6)Gal. The method, boiled down:
as §1

Assay [21] deals with Gal3S(b1-3)GalNAc. An outline of the steps:
as §1

Assay [22] has as its target Gal3S(b1-3)GlcNAc. An outline of the steps:
as §1

Assay [23] has as its target Gal3S(b1-3)[Fuc(a1-4)]GlcNAc. An outline of the steps:
as §1

The other results are listed elsewhere or left out.

B1: EUL D1A first (Oryza sativa) (protein)
chain: MFGFGHHHNQAPAAPSDPNQIFKIFCRANENYCLTVRDSAVVLAPVNPKDEHQHWFKDMRFSTKVKDGEGMPAFALVNKATGLAVKHSLGQSHPVKLVPFNPEYEDASVLWTESKDVGKGFRCIRMVNNTRLNLDAFHGDKDHGGVRDGTTVVLWEWCKGDNQSWKILPWGPEAHSSSPGAATILEQKLISEEDLNSAVDHHHHHH
With B1, the “glycan array binding signal (z-score)” value in assay [1] was 1.13; in [2], 1.1; in [3], -0.457; in assay [4], 0.909; in [5], 1.22; in assay [6] it was 0.178. In addition, the “glycan array binding signal (z-score)” value was 0.845 in assay [7]; 0.419 in assay [8]; 1.33 in [9]; -0.16 in [10]; -0.13 in [11]; -0.392 in [12]. For the same molecule, the “glycan array binding signal (z-score)” value in [13] is -1.36; in assay [14], -0.46; in assay [15] it was -0.529; in assay [16], 0.961; in assay [17], -0.087; in [18], -0.802. Moreover, the “glycan array binding signal (z-score)” value in assay [19] is 0.658; in assay [20] it was 0.044; in assay [21], -1.5; in [22], 0.245; in assay [23], 0.422.

Values taken from the supplement of paper PMC8728848.
